The inconclusive results got no clear call from the source; some entries with a clear call stand among them for comparison. A potency beside an inconclusive call is a rough fit, not a confirmed value. Activity calls are given as the source filed them. The call rests on the fitted dose curve; in most records, active means well fitted curve in the direction sought with a large enough effect; inconclusive means small, poorly fitted or top-dose-only effect, or another doubt; inactive means no such curve, though single readings can be large; an effect the other way counts as inactive or inconclusive.
Columns and labels:
[1] = Quantitative High-Throughput drug screen in 47 multiple myeloma cell lines against the NCATS MIPE library collection: FR4_PLB cell viability assay (AID 1918924; further: nearly all actives have a fitted effect of over 35% in size); conditions: FR4_PLB myeloma cells viability, CellTiter-Glo ATP, 48 h; viability (% of DMSO control): at 45.8 µM (top of the series)
Outline: (§1)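 Relative luminescence from CellTiter-Glo served as the viability signal, referenced to DMSO-treated (100%) and cell-free medium (0%) controls. Treatment lasted 48 hours at 37C with 500 cells per well.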

[2] = Quantitative High-Throughput drug screen in 47 multiple myeloma cell lines against the NCATS MIPE library collection: Delta47_JCRB cell viability assay (AID 1918925; further: nearly all actives have a fitted effect of over 45% in size); conditions: Delta47 myeloma viability, CellTiter-Glo ATP, 48 h; viability (% of DMSO): at 45.8 µM (top of the series) unless noted
Outline: (§2)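 CellTiter-Glo ATP luminescence gave viability after 48 h compound treatment at 37C of 500 multiple myeloma cells per well. Normalisation used DMSO-only wells as 100% and media-only wells as 0% viability; primary qHTS of approved and investigational drugs.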

[3] = Quantitative High-Throughput drug screen in 47 multiple myeloma cell lines against the NCATS MIPE library collection: EJM_DSMZ cell viability assay (AID 1918926; further: nearly all actives have a fitted effect of over 30% in size); conditions: EJM myeloma cell viability, CellTiter-Glo ATP, 48 h; viability, % of control: at 45.8 µM (top of the series)
Outline: as §2

[4] = Quantitative High-Throughput drug screen in 47 multiple myeloma cell lines against the NCATS MIPE library collection: AMO1_DSMZ cell viability assay (AID 1918927; further: nearly all actives have a fitted effect of over 30% in size)
Outline: as §2

[5] = Quantitative High-Throughput drug screen in 47 multiple myeloma cell lines against the NCATS MIPE library collection: ARP1_JJKsccF8 cell viability assay (AID 1918928; further: nearly all actives have a fitted effect of over 40% in size); conditions: ARP1 myeloma cells viability, CellTiter-Glo ATP, 48 h; viability: at 45.8 µM (top of the series)
Outline: (§3)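 500 cells/well; MIPE 4.0 library pinned in; 48 h, 37 °C, 5% CO2; CellTiter-Glo ATP luminescence. Controls: DMSO = 100% viability, medium only = 0%.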

[6] = Quantitative High-Throughput drug screen in 47 multiple myeloma cell lines against the NCATS MIPE library collection: ARD_JJKsccE7 cell viability assay (AID 1918929)
Outline: as §2

[7] = Quantitative High-Throughput drug screen in 47 multiple myeloma cell lines against the NCATS MIPE library collection: Karpas620_DSMZ cell viability assay (AID 1918959); further: nearly all actives have a fitted effect of over 30% in size
Outline: as §1

[8] = Quantitative High-Throughput drug screen in 47 multiple myeloma cell lines against the NCATS MIPE library collection: KMM1_JCRB cell viability assay (AID 1918960); conditions: KMM1 myeloma viability, CellTiter-Glo ATP luminescence, 48 h; viability (% of DMSO): at 45.8 µM (top of the series); further: nearly all actives have a fitted effect of over 30% in size
Outline: as §3

[9] = Quantitative High-Throughput drug screen in 47 multiple myeloma cell lines against the NCATS MIPE library collection: KHM11_PLB cell viability assay (AID 1918962); conditions: KHM11 myeloma cell viability, CellTiter-Glo ATP luminescence, 48 h; viability, % of DMSO control: at 45.8 µM (top of the series); further: nearly all actives have a fitted effect of over 35% in size
Outline: as §1

[10] = Quantitative High-Throughput drug screen in 47 multiple myeloma cell lines against the NCATS MIPE library collection: Karpas417_ECACC cell viability assay (AID 1918961); conditions: Karpas417 myeloma viability, CellTiter-Glo ATP luminescence, 48 h; viability (% of DMSO): at 45.8 µM (top of the series) unless noted
Outline: as §1

[11] = Primary redox qHTS assay for identification of artifact compounds. (AID 1845223)
Outline: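 Redox-cycling detection via DTT (250 uM final) oxidation coupled to Amplex Red (25 uM)/HRP (250 mU/mL) in HBSS. 15 min preincubation plus 30 min after DTT, room temperature. Ex/Em 525/598 nm; 4-parameter Hill fit against DMSO and 10 uM DA3003.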
Potency means the concentration at half of the fitted maximal effect.

CO[C@H]1C[C@@H]2CC[C@@H](C)[C@@](O)(O2)C(=O)C(=O)N2CCCC[C@@H]2C(=O)O[C@H]([C@@H](C)C[C@@H]2CC[C@H](O)[C@H](OC)C2)CC(=O)[C@H](C)C=C(C)[C@@H](O)[C@@H](OC)C(=O)[C@H](C)C[C@H](C)C=CC=CC=C1C
active: Potency [7] 16.6 µM
inconclusive: Potency [1] 20.9 µM [cytotoxic, partial curve] | Potency [2] 23.5 µM [cytotoxic, partial curve] | Potency [3] 20.9 µM [cytotoxic, single point] | Potency [4] 13.2 µM [cytotoxic, partial curve] | Potency [5] 20.9 µM [cytotoxic, partial curve, poor fit] | Potency [6] 26.4 µM [cytotoxic, single point] | Potency [8] 20.9 µM [cytotoxic, partial curve] | Potency [9] 18.7 µM [rising, partial curve]

CC(S)C(=O)NCC(=O)O (stereo unspecified)
inactive: Potency [1] | Potency [3] | Potency [4] | Potency [5] | Potency [10]
inconclusive: Potency [2] 33.2 µM [cytotoxic, single point] | Potency [7] 0.001 µM | Potency [8] 0.0332 µM [rising, full curve, poor fit] | Potency [9] 0.148 µM [rising, full curve, poor fit]

Cc1ccc(C(=O)N(CCCN)[C@@H](c2oc3cc(Cl)ccc3c(=O)c2Cc2ccccc2)C(C)C)cc1
active: Potency [4] 0.001 µM | Potency [6] 0.001 µM
inconclusive: Potency [1] 37.2 µM [cytotoxic, single point] | Potency [2] 8.33 µM [cytotoxic, full curve] | Potency [3] 33.2 µM [cytotoxic, single point] | Potency [7] 37.2 µM [cytotoxic, single point] | Potency [10] 41.8 µM [cytotoxic, partial curve, poor fit]
inactive: Potency [5]

CCCCCCCCCCCCCCCC(=O)OC[C@@H](NC(=O)C(Cl)Cl)[C@H](O)c1ccc([N+](=O)[O-])cc1
inactive: Potency [3] | Potency [4] | Potency [5] | Potency [6] | Potency [7] | Potency [8] | Potency [10]
inconclusive: Potency [1] 1.32 µM [rising, full curve, poor fit] | Potency [2] 0.0264 µM [rising, full curve, poor fit] | Potency [9] 1.48 µM [rising, partial curve, poor fit]

CCCOc1ccc2nc(NC(=O)OC)[nH]c2c1
inconclusive: Potency [3] 0.0372 µM [cytotoxic, full curve] | Potency [5] 0.0074 µM [cytotoxic, full curve] | Potency [7] 0.0017 µM [cytotoxic, full curve] | viability (% of DMSO) [8] 15.8% [cytotoxic] | Potency [9] 0.332 µM [cytotoxic, full curve]
inactive: Potency [1]
active: Potency [2] 0.0118 µM | Potency [4] 0.001 µM

CCCN[C@H]1CCc2nc(N)sc2C1
inconclusive: Potency [4] 10.5 µM [cytotoxic, partial curve, poor fit] | Potency [5] 33.2 µM [cytotoxic, single point] | Potency [6] 14.8 µM [cytotoxic, partial curve, poor fit] | Potency [10] 20.9 µM [cytotoxic, partial curve, poor fit] | Potency [9] 0.0526 µM [rising, full curve, poor fit]
inactive: Potency [1] | Potency [2] | Potency [3]

COc1nccc(-c2c(-c3ccc(F)cc3)ncn2C2CCC(O)CC2)n1 (stereo unspecified)
active: Potency [10] 4.69 µM
inactive: Potency [7]
inconclusive: Potency [11] 33.6 µM [activator, single point] | Potency [2] 3.72 µM [cytotoxic, full curve, poor fit] | Potency [3] 0.935 µM [cytotoxic, full curve, poor fit] | Potency [4] 0.0833 µM [cytotoxic, full curve, poor fit] | Potency [5] 1.18 µM [cytotoxic, full curve, poor fit] | Potency [9] 26.4 µM [cytotoxic, partial curve, poor fit]

CN(C)C(=O)[C@H](O)[C@H](Cc1ccccc1)NC(=O)c1cc2cc(Cl)ccc2[nH]1
inactive: Potency [11] | Potency [9]
active: Potency [6] 16.6 µM
inconclusive: Potency [1] 20.9 µM [cytotoxic, partial curve] | Potency [3] 18.7 µM [cytotoxic, partial curve] | Potency [7] 16.6 µM [cytotoxic, partial curve, poor fit] | Potency [8] 16.6 µM [cytotoxic, partial curve]

NS(=O)(=O)c1cc2c(cc1Cl)NCNS2(=O)=O
inactive: Potency [2] | Potency [5] | Potency [6]
inconclusive: Potency [1] 33.2 µM [cytotoxic, single point] | Potency [3] 11.8 µM [cytotoxic, full curve] | Potency [4] 23.5 µM [rising, partial curve, poor fit] | Potency [9] 33.2 µM [cytotoxic, single point]
active: Potency [10] 0.0066 µM

CC1CCC(C(=O)N(c2cc(C#CC(C)(C)C)sc2C(=O)O)C2CCC(O)CC2)CC1 (stereo unspecified)
inconclusive: Potency [11] 4.23 µM [activator, single point] | Potency [1] 3.72 µM [cytotoxic, partial curve, poor fit] | Potency [3] 18.7 µM [cytotoxic, partial curve, poor fit] | Potency [5] 18.7 µM [cytotoxic, partial curve, poor fit] | Potency [10] 37.2 µM [rising, single point] | Potency [9] 37.2 µM [cytotoxic, single point]
inactive: Potency [7]

O=C(c1cncc(Br)c1)N1CCC(N2CCCC2)CC1
inactive: Potency [11] | Potency [1] | Potency [3] | Potency [4] | Potency [8]
inconclusive: Potency [10] 0.132 µM [cytotoxic, full curve, poor fit] | Potency [9] 0.0469 µM [cytotoxic, full curve, poor fit]

COc1ccccc1OCCNCC(O)COc1cccc2[nH]c3ccccc3c12 (stereo unspecified)
inactive: Potency [9]
inconclusive: Potency [1] 23.5 µM [cytotoxic, single point] | Potency [2] 18.7 µM [cytotoxic, single point] | Potency [3] 23.5 µM [cytotoxic, partial curve, poor fit] | Potency [4] 37.2 µM [cytotoxic, single point] | Potency [5] 29.6 µM [cytotoxic, single point] | Potency [6] 37.2 µM [cytotoxic, single point] | Potency [7] 37.2 µM [cytotoxic, single point] | Potency [8] 33.2 µM [cytotoxic, single point] | Potency [10] 4.69 µM [cytotoxic, partial curve, poor fit]

CC(C)(C)c1[nH]cnc1C=c1[nH]c(=O)c(=Cc2ccccc2)[nH]c1=O
inconclusive: Potency [1] 67.9 µM [cytotoxic, single point] | Potency [2] 0.0679 µM [cytotoxic, full curve] | Potency [3] 0.481 µM [cytotoxic, partial curve] | Potency [5] 0.0171 µM [cytotoxic, full curve] | Potency [10] 0.171 µM [cytotoxic, full curve, poor fit] | Potency [9] 67.9 µM [cytotoxic, single point]
inactive: Potency [4] | Potency [6]

COc1ccc(-n2c(C)c([N+](=O)[O-])c3ccc(O)cc32)cc1
inactive: Potency [9]
inconclusive: Potency [1] 20.9 µM [cytotoxic, partial curve] | Potency [2] 0.148 µM [cytotoxic, full curve, poor fit] | Potency [3] 18.7 µM [cytotoxic, partial curve, poor fit] | Potency [4] 0.372 µM [cytotoxic, full curve, poor fit] | Potency [5] 3.32 µM [cytotoxic, full curve, poor fit] | Potency [6] 2.35 µM [rising, full curve] | Potency [10] 5.9 µM [rising, partial curve, poor fit]

C[C@]12CC[C@H](O)CC1=CCC1C2CC[C@]2(C)C(n3cnc4ccccc43)=CCC12 (stereo partly specified)
inactive: Potency [6] | Potency [7] | Potency [8]
active: viability (% of DMSO) [10] 109%
inconclusive: Potency [1] 29.6 µM [cytotoxic, single point] | Potency [2] 0.001 µM [cytotoxic] | Potency [3] 23.5 µM [cytotoxic, single point] | Potency [5] 29.6 µM [cytotoxic, single point] | Potency [9] 37.2 µM [cytotoxic, single point]

C1Cc2[nH]nc(-c3nn[nH]n3)c2C1
inactive: Potency [1] | Potency [3]
inconclusive: Potency [2] 18.7 µM [rising, partial curve, poor fit] | Potency [5] 20.9 µM [cytotoxic, single point] | Potency [6] 0.0017 µM [rising, full curve, poor fit] | Potency [10] 0.0019 µM [cytotoxic, full curve, poor fit] | Potency [9] 0.0066 µM [rising, full curve, poor fit]

2 entries picked at random from those above:
CC(S)C(=O)NCC(=O)O (stereo unspecified)
inactive: Potency [1] | Potency [3] | Potency [4] | Potency [5] | Potency [10]
inconclusive: Potency [2] 33.2 µM [cytotoxic, single point] | Potency [7] 0.001 µM | Potency [8] 0.0332 µM [rising, full curve, poor fit] | Potency [9] 0.148 µM [rising, full curve, poor fit]

CN(C)C(=O)[C@H](O)[C@H](Cc1ccccc1)NC(=O)c1cc2cc(Cl)ccc2[nH]1
inactive: Potency [11] | Potency [9]
active: Potency [6] 16.6 µM
inconclusive: Potency [1] 20.9 µM [cytotoxic, partial curve] | Potency [3] 18.7 µM [cytotoxic, partial curve] | Potency [7] 16.6 µM [cytotoxic, partial curve, poor fit] | Potency [8] 16.6 µM [cytotoxic, partial curve]

Source: PubChem BioAssay (NCATS)
